The whole screen tested about 6,900 compounds, of which fewer than 10 were called active. Calls follow the shape of the dose curve; as a rule, active = well fitted curve in the direction sought with a large enough effect; inconclusive = small, poorly fitted or top-dose-only effect, or another doubt; inactive = no such curve, though single readings can be large or run the other way. The list shows a part of the results.
Target: Metallo-beta-lactamase type 2 (Klebsiella pneumoniae) (UniProt C7C422)
Assay: qHTS to identify inhibitors of the New Delhi Metallo-beta-lactamase (NDM): primary screen against the NCATS Gemini Collection; also: % of control where 0% means no effect
Conditions: NDM-1 enzyme, meropenem hydrolysis, absorbance 300 nm; at 38.4 µM (top of the series) unless noted
Summary of the method: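 Meropenem hydrolysis (50 uM final) by 2 nM NDM-1 read as 300 nm absorbance after 30 min, following >30 min compound–enzyme preincubation in HEPES pH 7.0 with 1 uM ZnSO4 and 0.01% Tween20.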

Amino acid sequences for entries named in this document (tags omitted). A change or cut given only in a name is not applied to a line headed by its entry.
UniProt C7C422: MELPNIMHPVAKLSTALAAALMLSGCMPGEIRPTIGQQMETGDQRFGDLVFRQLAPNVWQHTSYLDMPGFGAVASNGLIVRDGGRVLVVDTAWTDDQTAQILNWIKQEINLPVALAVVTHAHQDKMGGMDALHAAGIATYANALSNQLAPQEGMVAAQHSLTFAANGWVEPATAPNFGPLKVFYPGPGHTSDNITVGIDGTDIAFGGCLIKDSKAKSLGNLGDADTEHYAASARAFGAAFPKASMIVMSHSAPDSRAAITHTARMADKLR

Activity % (negative = inhibition), inactive:
CN1CCCC2(CCN(c3nc4c(cc3C(N)=O)CCC4)C2)C1=O (stereo not drawn) -0.0357%, Cc1cc(C)n(CCC(=O)N2CCC(Cc3nncn3-c3ccccc3)CC2)n1 -5.45%, O=C(NCc1cccc(F)c1)N1CCC(n2cnnc2C2CC2)C1 (stereo not drawn) -0.49%, O=[S+]([O-])(c1cccnc1)c1nnn2c1nc(NCc1ccncc1)c1ccccc12 0.326%, Cc1ccc(OCc2nc(C3CCCCN3C(=O)c3ccncc3)no2)cc1 (stereo not drawn) 0.791%, CC(=O)NCc1nnc2n1C(C(=O)Nc1cccc(Cl)c1)CC2 (stereo not drawn) -5.04%, C(=C\c1ccccc1)/CN1CCN(c2nccc(-c3cccnc3)n2)CC1 -4.13%, CC(C)[S+](=O)([O-])N1CCC2(CC1)CC(c1cccc(C(F)(F)F)c1)=NO2 -2.29%, Cn1cc(CN(Cc2c(C(=O)N3CCCC3)nc3sccn23)C2CC2)cn1 -9.07%, OC[C@@H]1O[C@H](CNC2CCOCC2)[C@H](N2CCCCC2)[C@@H]1O 1.3% [at 57.5 µM], O=C(c1cccc2c1NCCC2)N1CCn2nc(C(O)C3CC3)cc2C1 (stereo not drawn) 2.7%, COc1ccc(CN2C(=O)[C@@H]3C[C@@H](O)CN3C3(CN(C)C3)C2=O)cc1 11.4% [at 57.5 µM], COc1ccc(-c2ccc3ncn(C4CC4)c(=O)c3n2)cn1 18.2% [at 57.5 µM], Cc1nc([C@@H]2CN(S(=O)(=O)c3ccc4c(c3)CCCC4)C[C@H]2C(N)=O)n[nH]1 0.242%, COc1ccccc1C(=O)N1CCCC(c2nnc3n2C(C(=O)O)CC3)C1 (stereo not drawn) 3.35%, O=C(NC1CC(=O)N(Cc2cccc(F)c2)C1)c1ccccc1-n1cccn1 (stereo not drawn) 5.36%, N#Cc1cccc(CN[C@H]2[C@H](O)[C@H](O)C[C@@H]2c2cccnc2)c1 -8.34% [at 57.5 µM], COC[C@@H]1[C@H](NC(=O)c2csc(C)c2-c2ccccc2)[C@@H]2CCO[C@H]12 3.58%, COc1ccc(CNC(=O)[C@@H](C)C2CC[C@@]3(C)CC[C@H](NC(=O)COc4ccccc4)[C@@H](C)[C@@H]3[C@H]2O)cc1 (stereo partly drawn) 1.88%, CCC(=O)N1CCc2sc(C(=O)NCCCOC)cc2C1 6.65%, Cc1nn(CC(=O)N2CCCCCC2)c(=O)c2nc(C(C)C)sc12 12.4%, O=C(CCCn1cncn1)N1CCCC(CCc2ccccc2C(F)(F)F)C1 (stereo not drawn) 2.51%, O=C(NCC1CCN(c2cc(-c3ccccc3)[nH]n2)CC1)c1ccc2nc[nH]c2c1 0.427%, O=C1CC(c2cn[nH]c2C(=O)O)c2c(n[nH]c2-c2cccs2)N1 (stereo not drawn) 23.5%, Cc1cc(C)cc(NC(=S)N[C@H]2CO[C@H]3[C@@H]2OC[C@H]3OC(=O)NC2CCCCC2)c1 15.5% [at 57.5 µM], Cn1cc(-c2cn(C)c(=O)n3cc(CNc4ccccc4)nc23)cn1 13.2% [at 57.5 µM], CCCS(=O)(=O)N1C[C@@H](Oc2cccnc2)C[C@H]1C(N)=O -0.421%, C=CCOc1cccc(-c2nnc(CCC(=O)NC(C)CC)c(=O)[nH]2)c1 (stereo not drawn) 16.7%, c1cc2c(cc1-c1n[nH]c(C3CCOCC3)n1)OCO2 5.77%, CCc1cc(CN(C)C(=O)C(c2ccc(C)cc2)N(C)C)on1 (stereo not drawn) 0.632%, COC(=O)CNC(=O)C1CCc2nnc(CNC(=O)NC(C)C)n21 (stereo not drawn) 7.35%, O=C(c1ccc[nH]1)N1CCC(n2cc(-c3nc(C4CC4)no3)nn2)C1 (stereo not drawn) -1.54%, C[C@@]12CCC(=O)C[C@@H]1C[C@H](OC(=O)Nc1ccccc1)CC2 8.26%, COCCn1cnnc1CNc1cc(-c2ccncc2)nc2ccnn12 13.5%, COCCN1CC2(CCC1=O)CCN(C(=O)[C@@H]1C[C@@H](O)CN1)CC2 16.5%, Cn1nc2n(c1=O)CCC(NC(=O)c1n[nH]c3c1CC(C(C)(C)C)CC3)CC2 (stereo not drawn) 12.2%, O=C(NC1CCN(Cc2ccccc2)CC1)c1cccc2c1CCN2C(=O)c1ccccc1 2.69%, COc1cc(OC)cc(-c2onc(C)c2C(=O)NCCC(c2ccccc2)c2ccccc2)c1 1.93%, COCC1CCCN(C(=O)c2cc(Cn3c(C)nc4ccccc43)[nH]n2)C1 (stereo not drawn) 9.64%, O=C(C1CCc2nnc(-c3cccc(C(F)(F)F)c3)n21)N1CCCCC1 (stereo not drawn) -0.535%, CC(=O)N1CCN(Cc2ccccc2-c2cccnc2)CC1 16.5% [at 57.5 µM], O=C(C1CCCC1)N1C[C@@H](COc2ccncc2)[C@H](c2ccccn2)C1 4.5%, COc1ccc(NC(=O)N2CCC3(CC2)SCC(=O)N3c2ccc(F)cc2)cc1 79.9%, CCCc1ccc(-c2nc(C3CCOC3)no2)cc1 (stereo not drawn) 0.845%, COc1ncccc1-c1cc(-c2c(C)noc2C)c2cncn2c1 15.3% [at 57.5 µM], COC(=O)c1ccc(CNC(=O)CC2c3cccnc3C(=O)N2c2ccccc2)cc1 (stereo not drawn) 0.251% [at 16.1 µM], Cc1nnc(-c2cc(-c3ccccc3Oc3ccccc3)ccn2)n1C 24% [at 57.5 µM], COC(=O)N1CCC2(C1)N=C(c1ccncc1)C(=O)N2 (stereo not drawn) 0.0551% [at 57.5 µM], CCN(CC)C(=O)CC[C@@H]1CNC(=O)[C@@H]2C[C@H](NC(=O)Nc3ccsc3)CN12 3.78% [at 57.5 µM], O=C1CC(c2noc(-c3cccs3)n2)CN1C1CCCCC1 (stereo not drawn) -7.94%, C[C@@H](N)C(=O)N1CCC2(CC1)CC(=O)N(Cc1cc(F)cc(F)c1)C2 -4.75%, CN(C)[C@@H]1CO[C@H](CNC(=O)CC(C)(C)C)[C@H]1O 0.831% [at 77.1 µM], CCn1ncc(CN2C[C@@H](COC)[C@H](c3ccncc3)C2)c1C -9.05%

Reference: PubChem BioAssay AID1794845 (National Center for Advancing Translational Sciences (NCATS), 2023)
